Measured values reported in publication PMC11381335, “Unraveling the structure and function of a novel SegC protein interacting with the SegAB chromosome segregation complex in Archaea” (Nucleic Acids Research, 2024).
Substitutions are numbered along the chain they refer to. Construct, isoform or probe ends are uncertain for at least one entry. For some of these results: A negative result means that nothing was seen under these conditions. Where a protein sequence is shown, tags need not be part of it. For some of these results: At least one verdict was read from the data and is not stated in words by the source.

Assays:
Experiment in all cases: fluorescence polarization
SegC = target: T1, SegC (UniProt Q981B4); settings: FP: 20 mM Tris-HCl pH 7.5, 100 mM NaCl, 2 mM MgCl2, 5 nM Cy3-DNA, room temperature, recombinant protein, protein details: C-terminal His6, label: 5' Cy3
T1 sequence (looked up): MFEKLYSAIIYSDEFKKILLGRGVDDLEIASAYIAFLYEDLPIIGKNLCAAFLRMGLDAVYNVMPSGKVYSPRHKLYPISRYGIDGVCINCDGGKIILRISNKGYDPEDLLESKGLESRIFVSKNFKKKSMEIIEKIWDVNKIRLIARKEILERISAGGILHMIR

SegC-R73A = target: T2, SegC-R73A (UniProt Q981B4); settings: similar to WT, Kd only in figure table; FP: 20 mM Tris-HCl pH 7.5, 100 mM NaCl, 2 mM MgCl2, 5 nM Cy3-DNA, room temperature; recombinant protein; residues 1-165; label: 5' Cy3
T2 sequence (looked up): T1 sequence (looked up) with R73A

SegC-K46A = target: T3, SegC-K46A (UniProt Q981B4); settings: similar to WT, Kd only in figure table; FP: 20 mM Tris-HCl pH 7.5, 100 mM NaCl, 2 mM MgCl2, 5 nM Cy3-DNA, room temperature; recombinant protein; residues 1-165; label: 5' Cy3
T3 sequence (looked up): T1 sequence (looked up) with K46A

SegC-N90A = target: T4, SegC-N90A (UniProt Q981B4); settings: two-fold lower affinity than WT; FP: 20 mM Tris-HCl pH 7.5, 100 mM NaCl, 2 mM MgCl2, 5 nM Cy3-DNA, room temperature; recombinant protein; residues 1-165; label: 5' Cy3
T4 sequence (looked up): T1 sequence (looked up) with N90A

SegC-R81A = target: T5, SegC-R81A (UniProt Q981B4); settings: similar to WT, Kd only in figure table; FP: 20 mM Tris-HCl pH 7.5, 100 mM NaCl, 2 mM MgCl2, 5 nM Cy3-DNA, room temperature; recombinant protein; residues 1-165; label: 5' Cy3
T5 sequence (looked up): T1 sequence (looked up) with R81A

SegC-R99A = target: T6, SegC-R99A (UniProt Q981B4); settings: similar to WT, Kd only in figure table; FP: 20 mM Tris-HCl pH 7.5, 100 mM NaCl, 2 mM MgCl2, 5 nM Cy3-DNA, room temperature; recombinant protein; residues 1-165; label: 5' Cy3
T6 sequence (looked up): T1 sequence (looked up) with R99A

| Sequence | Kd (SegC; printed as ~10^-6 uM, evidently 10^-6 M, collective value for Figure 1A and B, residues 1-165) | binding result (SegC-R73A) | binding result (SegC-K46A) | Kd (SegC-N90A) | binding result (SegC-R81A) | binding result (SegC-R99A) | binding result (SegC; 500 mM salt, NB (no measurable binding), residues …) |
| --- | --- | --- | --- | --- | --- | --- | --- |
| ACGTAGAAGAGTCTAGACTGA / CAGTCTAGACTCTTCTACGTA [21-bp site 1 (S1) dsDNA] | 1 µM | – | – | – | – | – | – |
| ACGTAGAAGAGTCTAGACTGA / CAGTCTAGACTCTTCTACGTA | – | binds | binds | 4.58 µM | binds | binds | no binding |
